Laboratory results published in the supplement of paper PMC7666118.
The list shows a part of the results.

Sequences of proteins named here, by UniProt entry; tags and fusion partners are left off. A change or cut given only in a name is not applied to a line headed by its entry.
UniProt Q03252: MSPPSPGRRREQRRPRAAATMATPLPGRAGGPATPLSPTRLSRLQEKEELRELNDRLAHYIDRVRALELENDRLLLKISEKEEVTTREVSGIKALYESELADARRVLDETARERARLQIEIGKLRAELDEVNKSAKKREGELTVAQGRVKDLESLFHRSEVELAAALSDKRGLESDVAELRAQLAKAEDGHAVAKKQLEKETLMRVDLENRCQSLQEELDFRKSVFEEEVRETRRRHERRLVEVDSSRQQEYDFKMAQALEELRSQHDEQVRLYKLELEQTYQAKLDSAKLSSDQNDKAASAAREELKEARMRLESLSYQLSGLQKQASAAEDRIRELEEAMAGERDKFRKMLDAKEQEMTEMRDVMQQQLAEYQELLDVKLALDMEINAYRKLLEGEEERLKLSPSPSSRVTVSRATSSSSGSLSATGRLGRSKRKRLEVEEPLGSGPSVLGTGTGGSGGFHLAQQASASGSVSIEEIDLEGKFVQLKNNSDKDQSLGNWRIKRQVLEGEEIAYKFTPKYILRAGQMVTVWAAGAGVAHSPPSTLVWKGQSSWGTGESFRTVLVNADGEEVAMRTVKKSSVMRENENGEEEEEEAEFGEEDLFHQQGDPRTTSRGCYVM
UniProt Q9Y2U5: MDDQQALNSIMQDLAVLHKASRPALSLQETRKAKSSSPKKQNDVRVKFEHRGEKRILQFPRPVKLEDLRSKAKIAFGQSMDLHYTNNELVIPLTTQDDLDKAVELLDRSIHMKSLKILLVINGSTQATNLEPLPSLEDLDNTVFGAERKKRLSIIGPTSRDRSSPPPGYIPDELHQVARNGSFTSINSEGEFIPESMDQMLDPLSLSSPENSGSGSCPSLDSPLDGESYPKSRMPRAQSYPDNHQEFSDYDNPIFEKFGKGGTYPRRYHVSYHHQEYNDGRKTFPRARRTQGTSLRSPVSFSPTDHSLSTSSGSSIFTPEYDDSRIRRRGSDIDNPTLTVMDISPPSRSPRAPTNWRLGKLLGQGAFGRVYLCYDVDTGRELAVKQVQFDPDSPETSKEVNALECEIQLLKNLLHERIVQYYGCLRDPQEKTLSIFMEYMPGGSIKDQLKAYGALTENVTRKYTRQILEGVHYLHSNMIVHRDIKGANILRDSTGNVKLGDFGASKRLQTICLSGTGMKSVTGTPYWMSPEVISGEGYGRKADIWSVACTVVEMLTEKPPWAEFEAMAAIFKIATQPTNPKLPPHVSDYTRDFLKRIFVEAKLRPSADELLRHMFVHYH
UniProt P10636, whole entry: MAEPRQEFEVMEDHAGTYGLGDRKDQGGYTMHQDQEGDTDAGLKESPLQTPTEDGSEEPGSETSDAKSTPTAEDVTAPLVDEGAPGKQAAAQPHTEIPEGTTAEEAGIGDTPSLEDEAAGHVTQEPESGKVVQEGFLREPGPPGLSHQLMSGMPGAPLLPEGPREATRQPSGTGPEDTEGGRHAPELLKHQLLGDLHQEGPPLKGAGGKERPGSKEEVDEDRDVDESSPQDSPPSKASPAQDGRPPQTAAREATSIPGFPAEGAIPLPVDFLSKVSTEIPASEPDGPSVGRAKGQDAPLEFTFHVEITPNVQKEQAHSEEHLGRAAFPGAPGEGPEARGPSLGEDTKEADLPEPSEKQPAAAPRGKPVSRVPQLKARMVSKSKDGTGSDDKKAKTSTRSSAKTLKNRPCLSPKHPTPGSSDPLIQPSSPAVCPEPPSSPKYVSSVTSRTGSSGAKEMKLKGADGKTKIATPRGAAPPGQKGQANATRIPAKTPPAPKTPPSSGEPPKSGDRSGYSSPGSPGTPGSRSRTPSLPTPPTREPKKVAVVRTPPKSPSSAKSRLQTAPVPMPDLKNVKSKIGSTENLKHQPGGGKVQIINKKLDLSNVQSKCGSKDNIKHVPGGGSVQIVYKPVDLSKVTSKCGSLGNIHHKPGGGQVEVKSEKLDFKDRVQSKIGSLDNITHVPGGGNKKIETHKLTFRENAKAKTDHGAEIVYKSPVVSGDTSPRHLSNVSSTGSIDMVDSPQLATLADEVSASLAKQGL
UniProt Q14244: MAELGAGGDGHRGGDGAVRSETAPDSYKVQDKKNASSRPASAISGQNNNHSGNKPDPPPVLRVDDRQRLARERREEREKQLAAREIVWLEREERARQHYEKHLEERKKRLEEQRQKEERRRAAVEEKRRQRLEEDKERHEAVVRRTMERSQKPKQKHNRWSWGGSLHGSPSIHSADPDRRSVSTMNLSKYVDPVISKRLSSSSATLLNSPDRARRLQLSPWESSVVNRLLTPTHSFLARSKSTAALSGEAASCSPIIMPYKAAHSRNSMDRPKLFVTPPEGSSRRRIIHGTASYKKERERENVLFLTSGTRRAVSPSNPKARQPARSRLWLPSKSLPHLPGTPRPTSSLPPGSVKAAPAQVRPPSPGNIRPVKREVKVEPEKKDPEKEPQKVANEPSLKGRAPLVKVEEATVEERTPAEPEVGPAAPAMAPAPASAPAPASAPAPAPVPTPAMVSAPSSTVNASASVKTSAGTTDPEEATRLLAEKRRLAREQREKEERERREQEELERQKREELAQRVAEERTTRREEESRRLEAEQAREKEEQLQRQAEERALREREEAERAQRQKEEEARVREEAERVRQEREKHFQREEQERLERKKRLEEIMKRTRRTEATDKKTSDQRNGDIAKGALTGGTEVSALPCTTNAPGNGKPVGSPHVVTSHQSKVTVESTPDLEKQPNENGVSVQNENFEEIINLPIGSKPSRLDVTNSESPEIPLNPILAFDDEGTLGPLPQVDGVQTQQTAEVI
UniProt P61244, whole entry: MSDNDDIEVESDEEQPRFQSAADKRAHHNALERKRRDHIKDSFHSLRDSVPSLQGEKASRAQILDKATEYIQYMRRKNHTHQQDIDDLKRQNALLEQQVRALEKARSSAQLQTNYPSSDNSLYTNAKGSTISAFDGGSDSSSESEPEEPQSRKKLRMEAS
UniProt P61326, whole entry: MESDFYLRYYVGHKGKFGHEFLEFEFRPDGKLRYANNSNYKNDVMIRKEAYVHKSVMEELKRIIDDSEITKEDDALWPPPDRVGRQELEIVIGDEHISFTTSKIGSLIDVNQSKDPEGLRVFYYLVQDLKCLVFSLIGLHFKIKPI
UniProt Q9UIS9: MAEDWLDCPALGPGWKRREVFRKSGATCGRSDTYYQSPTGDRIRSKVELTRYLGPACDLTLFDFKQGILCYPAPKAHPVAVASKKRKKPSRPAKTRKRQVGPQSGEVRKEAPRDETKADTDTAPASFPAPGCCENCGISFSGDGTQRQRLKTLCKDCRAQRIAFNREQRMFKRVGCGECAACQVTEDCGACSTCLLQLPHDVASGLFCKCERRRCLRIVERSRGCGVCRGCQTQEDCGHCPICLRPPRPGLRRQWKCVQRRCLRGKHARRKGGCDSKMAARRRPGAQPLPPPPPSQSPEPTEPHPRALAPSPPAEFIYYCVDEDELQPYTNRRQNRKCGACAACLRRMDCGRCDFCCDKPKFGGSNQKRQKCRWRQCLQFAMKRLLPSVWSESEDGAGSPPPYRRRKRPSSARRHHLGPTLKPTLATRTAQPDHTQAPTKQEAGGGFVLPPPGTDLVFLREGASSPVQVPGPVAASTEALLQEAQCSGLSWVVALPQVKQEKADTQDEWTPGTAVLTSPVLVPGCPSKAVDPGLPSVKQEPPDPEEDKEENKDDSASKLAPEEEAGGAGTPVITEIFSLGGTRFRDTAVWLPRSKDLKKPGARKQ
UniProt Q9Y4W2: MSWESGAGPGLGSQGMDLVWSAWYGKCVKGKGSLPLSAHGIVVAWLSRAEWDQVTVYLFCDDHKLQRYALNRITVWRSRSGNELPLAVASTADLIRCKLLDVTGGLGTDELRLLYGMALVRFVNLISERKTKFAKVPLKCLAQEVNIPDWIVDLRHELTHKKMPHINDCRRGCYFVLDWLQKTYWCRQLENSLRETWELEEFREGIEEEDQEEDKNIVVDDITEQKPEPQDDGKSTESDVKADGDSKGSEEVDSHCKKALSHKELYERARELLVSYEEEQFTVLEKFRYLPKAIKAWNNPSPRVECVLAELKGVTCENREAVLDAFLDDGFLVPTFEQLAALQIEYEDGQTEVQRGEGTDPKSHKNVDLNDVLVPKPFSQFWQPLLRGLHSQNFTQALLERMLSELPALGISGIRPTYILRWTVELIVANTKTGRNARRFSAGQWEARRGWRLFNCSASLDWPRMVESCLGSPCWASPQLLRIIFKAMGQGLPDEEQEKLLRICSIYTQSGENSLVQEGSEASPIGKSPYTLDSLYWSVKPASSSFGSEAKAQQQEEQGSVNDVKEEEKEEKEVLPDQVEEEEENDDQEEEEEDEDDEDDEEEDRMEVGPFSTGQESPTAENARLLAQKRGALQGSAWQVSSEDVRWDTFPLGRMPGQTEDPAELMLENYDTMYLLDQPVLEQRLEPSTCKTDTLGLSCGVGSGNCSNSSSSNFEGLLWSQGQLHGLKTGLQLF
UniProt Q86WA8: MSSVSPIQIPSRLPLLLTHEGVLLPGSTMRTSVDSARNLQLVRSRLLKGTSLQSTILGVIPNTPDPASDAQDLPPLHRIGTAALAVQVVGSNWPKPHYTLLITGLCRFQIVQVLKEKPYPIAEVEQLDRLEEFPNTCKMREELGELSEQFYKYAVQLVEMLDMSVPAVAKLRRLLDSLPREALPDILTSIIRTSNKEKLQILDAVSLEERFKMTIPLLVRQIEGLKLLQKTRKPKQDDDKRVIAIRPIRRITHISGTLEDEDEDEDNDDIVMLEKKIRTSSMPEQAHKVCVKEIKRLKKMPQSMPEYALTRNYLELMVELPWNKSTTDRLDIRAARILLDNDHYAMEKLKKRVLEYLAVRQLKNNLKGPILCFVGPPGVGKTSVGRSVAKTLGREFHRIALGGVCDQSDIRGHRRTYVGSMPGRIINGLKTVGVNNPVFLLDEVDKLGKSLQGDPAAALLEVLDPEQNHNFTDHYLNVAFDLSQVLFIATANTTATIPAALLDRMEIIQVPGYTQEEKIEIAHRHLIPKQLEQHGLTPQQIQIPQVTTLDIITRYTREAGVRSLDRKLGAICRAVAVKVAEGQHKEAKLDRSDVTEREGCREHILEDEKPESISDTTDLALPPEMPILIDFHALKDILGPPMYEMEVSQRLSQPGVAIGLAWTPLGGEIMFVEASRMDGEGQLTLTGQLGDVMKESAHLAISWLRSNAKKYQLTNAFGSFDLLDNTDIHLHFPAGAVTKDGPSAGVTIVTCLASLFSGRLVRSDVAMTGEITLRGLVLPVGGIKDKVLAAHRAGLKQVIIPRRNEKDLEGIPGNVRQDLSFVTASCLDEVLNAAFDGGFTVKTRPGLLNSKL
UniProt P02686, whole entry: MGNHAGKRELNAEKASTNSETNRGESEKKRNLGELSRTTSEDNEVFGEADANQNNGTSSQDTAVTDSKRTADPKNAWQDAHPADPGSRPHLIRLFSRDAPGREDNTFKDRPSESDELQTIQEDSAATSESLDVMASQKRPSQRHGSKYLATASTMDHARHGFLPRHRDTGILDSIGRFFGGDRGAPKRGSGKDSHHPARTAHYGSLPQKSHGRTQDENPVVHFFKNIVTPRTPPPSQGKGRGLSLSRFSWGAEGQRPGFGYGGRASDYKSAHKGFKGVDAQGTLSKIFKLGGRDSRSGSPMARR
UniProt Q9UIC8: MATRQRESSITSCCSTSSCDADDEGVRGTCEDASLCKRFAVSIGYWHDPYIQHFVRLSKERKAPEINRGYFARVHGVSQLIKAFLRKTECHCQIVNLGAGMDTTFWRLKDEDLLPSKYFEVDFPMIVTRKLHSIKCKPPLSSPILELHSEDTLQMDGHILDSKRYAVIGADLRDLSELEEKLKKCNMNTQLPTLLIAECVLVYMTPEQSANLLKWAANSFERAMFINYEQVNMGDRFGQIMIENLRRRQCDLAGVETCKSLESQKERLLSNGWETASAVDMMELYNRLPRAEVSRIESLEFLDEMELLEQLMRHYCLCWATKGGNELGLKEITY
UniProt Q14847: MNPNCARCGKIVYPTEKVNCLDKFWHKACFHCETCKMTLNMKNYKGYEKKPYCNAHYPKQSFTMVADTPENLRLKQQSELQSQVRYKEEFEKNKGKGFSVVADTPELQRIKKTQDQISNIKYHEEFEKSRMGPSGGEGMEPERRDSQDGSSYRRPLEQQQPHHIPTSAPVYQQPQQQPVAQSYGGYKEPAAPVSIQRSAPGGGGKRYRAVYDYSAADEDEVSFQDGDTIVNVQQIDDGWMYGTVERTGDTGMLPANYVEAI
UniProt Q9UBB5, whole entry: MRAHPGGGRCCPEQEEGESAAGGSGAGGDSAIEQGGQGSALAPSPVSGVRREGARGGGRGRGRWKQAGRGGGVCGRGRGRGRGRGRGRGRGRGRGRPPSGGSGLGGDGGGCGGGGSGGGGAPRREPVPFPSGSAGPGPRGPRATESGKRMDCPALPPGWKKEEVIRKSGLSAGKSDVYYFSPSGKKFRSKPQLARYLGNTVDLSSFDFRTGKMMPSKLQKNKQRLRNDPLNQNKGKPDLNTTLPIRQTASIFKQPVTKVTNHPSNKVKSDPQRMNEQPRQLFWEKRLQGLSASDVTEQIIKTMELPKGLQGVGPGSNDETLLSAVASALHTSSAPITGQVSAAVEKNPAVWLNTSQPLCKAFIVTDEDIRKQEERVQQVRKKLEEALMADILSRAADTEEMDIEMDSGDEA

compound: COc1ccc(Cn2ccc3cc(C)c(C(=O)NO)cc32)cc1; assay: dose-dependent thermal stabilisation call (2D-TPP, DLPTP, 10% FDR) (binary (1 = stabilised)); higher = stabilised by the compound; conditions: system: HL-60 intact cells; concentration range 0.04-10 µM
Experimental: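 2D thermal proteome profiling in intact HL-60 cells treated with BRD-3811 (0, 0.04, 0.29, 2, 10 uM) for 90 min at 37 C, then heated 3 min at one of 12 temperatures (42-63.9 C). Soluble protein was quantified by TMT10 MS. The value is the DLPTP call of the paper: dose-dependent thermal stabilisation over all temperatures at 10% FDR (F-test of a dose-response against a flat model); one experiment, one call per tested protein.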

Row | Target | dose-dependent thermal stabilisation call
1 | LMNB2 (UniProt Q03252) | inactive: 0
2 | MAP3K2 (UniProt Q9Y2U5) | inactive: 0
3 | MAPT (UniProt P10636) | inactive: 0
4 | LMAN2 (UniProt Q12907) | inactive: 0
5 | LDHA (UniProt P00338) | inactive: 0
6 | LOC728658 | inactive: 0
7 | MAP7 (UniProt Q14244) | inactive: 0
8 | LRRFIP1 (UniProt Q32MZ4) | inactive: 0
9 | LSG1 (UniProt Q9H089) | inactive: 0
10 | LMNA (UniProt P02545) | inactive: 0
11 | LOC100129759 | inactive: 0
12 | LEO1 (UniProt Q8WVC0) | inactive: 0
13 | MAX (UniProt P61244) | inactive: 0
14 | LCP2 (UniProt Q13094) | inactive: 0
15 | MAD2L2 (UniProt Q9UI95) | inactive: 0
16 | MAGOH (UniProt P61326) | inactive: 0
17 | MBD1 (UniProt Q9UIS9) | inactive: 0
18 | LAMC1 (UniProt P11047) | inactive: 0
19 | LRP5 (UniProt O75197) | inactive: 0
20 | LAS1L (UniProt Q9Y4W2) | inactive: 0

Row | Target | dose-dependent thermal stabilisation call
21 | KRR1 (UniProt Q13601) | inactive: 0
22 | LONP2 (UniProt Q86WA8) | inactive: 0
23 | MANBA (UniProt O00462) | inactive: 0
24 | KRI1 (UniProt Q8N9T8) | inactive: 0
25 | MBP (UniProt P02686) | inactive: 0
26 | LCMT1 (UniProt Q9UIC8) | inactive: 0
27 | MAP7D3 (UniProt Q8IWC1) | inactive: 0
28 | LOC642393 | inactive: 0
29 | LAP3 (UniProt P28838) | active: 1
30 | MARS2 (UniProt Q96GW9) | inactive: 0
31 | MDP-1 | inactive: 0
32 | LIG1 (UniProt P18858) | inactive: 0
33 | MAGT1 (UniProt Q9H0U3) | inactive: 0
34 | MCCC2 (UniProt Q9HCC0) | inactive: 0
35 | LGALS8 (UniProt O00214) | inactive: 0
36 | LOH12CR1 (UniProt Q969J3) | active: 1
37 | MAP4K4 (UniProt O95819) | inactive: 0
38 | LASP1 (UniProt Q14847) | inactive: 0
39 | MBD2 (UniProt Q9UBB5) | inactive: 0
40 | MACF1 | inactive: 0

2 records drawn at random from the list so far:
Row | Target | dose-dependent thermal stabilisation call
12 | LEO1 (UniProt Q8WVC0) | inactive: 0
29 | LAP3 (UniProt P28838) | active: 1
